From paper PMC7779543
No constants are given. Whether binding was seen depends on the method and setting. In cells and extracts the contact can be indirect. Some entries that bind do so weakly or less than the wild type.

Amino acid sequences for entries named in this document (tags omitted).
UniProt O14746: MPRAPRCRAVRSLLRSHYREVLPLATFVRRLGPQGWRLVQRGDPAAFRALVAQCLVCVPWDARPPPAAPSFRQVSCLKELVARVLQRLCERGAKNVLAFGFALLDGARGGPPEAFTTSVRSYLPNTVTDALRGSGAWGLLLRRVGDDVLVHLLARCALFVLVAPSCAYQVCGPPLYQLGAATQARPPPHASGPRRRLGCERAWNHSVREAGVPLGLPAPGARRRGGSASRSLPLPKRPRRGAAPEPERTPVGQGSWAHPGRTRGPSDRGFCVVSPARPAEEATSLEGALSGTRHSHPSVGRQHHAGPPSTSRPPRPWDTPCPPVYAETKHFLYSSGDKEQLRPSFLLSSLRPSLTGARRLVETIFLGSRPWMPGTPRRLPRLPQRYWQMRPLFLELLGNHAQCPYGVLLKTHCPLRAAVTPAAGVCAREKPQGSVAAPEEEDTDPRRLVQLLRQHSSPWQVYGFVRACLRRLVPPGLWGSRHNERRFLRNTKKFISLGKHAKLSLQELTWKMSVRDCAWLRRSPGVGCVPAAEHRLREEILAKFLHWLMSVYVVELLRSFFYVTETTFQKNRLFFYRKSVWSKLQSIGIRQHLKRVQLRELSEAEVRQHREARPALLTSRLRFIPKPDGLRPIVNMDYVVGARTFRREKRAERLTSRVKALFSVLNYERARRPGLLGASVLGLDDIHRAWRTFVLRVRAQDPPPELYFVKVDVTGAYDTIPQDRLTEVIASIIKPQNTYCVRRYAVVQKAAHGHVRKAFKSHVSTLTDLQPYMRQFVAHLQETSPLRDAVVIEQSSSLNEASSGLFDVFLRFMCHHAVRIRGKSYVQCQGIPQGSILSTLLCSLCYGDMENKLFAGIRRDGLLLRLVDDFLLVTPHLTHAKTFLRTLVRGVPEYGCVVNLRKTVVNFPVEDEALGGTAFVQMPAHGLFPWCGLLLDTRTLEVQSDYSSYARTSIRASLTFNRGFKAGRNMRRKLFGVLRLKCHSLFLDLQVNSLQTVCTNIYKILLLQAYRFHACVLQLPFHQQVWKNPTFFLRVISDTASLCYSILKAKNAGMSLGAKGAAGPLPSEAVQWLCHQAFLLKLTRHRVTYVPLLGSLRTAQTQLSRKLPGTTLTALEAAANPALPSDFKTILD
UniProt Q9BUR4: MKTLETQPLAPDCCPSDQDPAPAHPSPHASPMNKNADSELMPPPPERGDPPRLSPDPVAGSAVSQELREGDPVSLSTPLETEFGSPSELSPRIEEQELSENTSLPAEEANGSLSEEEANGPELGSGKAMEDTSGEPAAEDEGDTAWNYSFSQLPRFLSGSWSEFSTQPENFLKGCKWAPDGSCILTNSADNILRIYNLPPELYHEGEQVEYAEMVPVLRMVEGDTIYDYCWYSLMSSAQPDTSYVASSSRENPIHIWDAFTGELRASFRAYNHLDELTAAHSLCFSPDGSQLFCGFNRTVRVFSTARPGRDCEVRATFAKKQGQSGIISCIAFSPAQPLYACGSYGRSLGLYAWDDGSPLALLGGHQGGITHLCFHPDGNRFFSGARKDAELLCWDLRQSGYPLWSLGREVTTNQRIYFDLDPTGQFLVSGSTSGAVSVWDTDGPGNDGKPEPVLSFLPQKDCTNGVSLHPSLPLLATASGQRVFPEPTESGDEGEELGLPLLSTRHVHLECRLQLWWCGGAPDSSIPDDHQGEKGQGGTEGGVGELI
UniProt Q9Y265: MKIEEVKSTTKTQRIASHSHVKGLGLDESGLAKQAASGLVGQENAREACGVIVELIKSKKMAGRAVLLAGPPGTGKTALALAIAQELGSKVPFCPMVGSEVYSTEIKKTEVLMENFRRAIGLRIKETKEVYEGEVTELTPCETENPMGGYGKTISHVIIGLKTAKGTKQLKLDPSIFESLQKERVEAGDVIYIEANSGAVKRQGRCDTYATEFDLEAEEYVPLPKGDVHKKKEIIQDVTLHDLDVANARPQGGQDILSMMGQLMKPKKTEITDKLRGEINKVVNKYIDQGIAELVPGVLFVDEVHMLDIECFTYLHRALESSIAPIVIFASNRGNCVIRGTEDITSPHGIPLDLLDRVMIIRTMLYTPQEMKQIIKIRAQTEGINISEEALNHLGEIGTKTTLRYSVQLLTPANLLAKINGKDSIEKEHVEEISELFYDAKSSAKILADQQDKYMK

B1: Cbf5, a component of telomere synthase H/ACA ribonucleoprotein (RNP) (protein, UniProt O60832 1-514)
chain: MADAEVIILPKKHKKKKERKSLPEEDVAEIQHAEEFLIKPESKVAKLDTSQWPLLLKNFDKLNVRTTHYTPLACGSNPLKREIGDYIRTGFINLDKPSNPSSHEVVAWIRRILRVEKTGHSGTLDPKVTGCLIVCIERATRLVKSQQSAGKEYVGIVRLHNAIEGGTQLSRALETLTGALFQRPPLIAAVKRQLRVRTIYESKMIEYDPERRLGIFWVSCEAGTYIRTLCVHLGLLLGVGGQMQELRRVRSGVMSEKDHMVTMHDVLDAQWLYDNHKDESYLRRVVYPLEKLLTSHKRLVMKDSAVNAICYGAKIMLPGVLRYEDGIEVNQEIVVITTKGEAICMAIALMTTAVISTCDHGIVAKIKRVIMERDTYPRKWGLGPKASQKKLMIKQGLLDKHGKPTDSTPATWKQEYVDYSESAKKEVVAEVVKAPQVVAEAAKTAKRKRESESESDETPPAAPQLIKKEKKKSKKDKKAKAGLESGAEPGDGDSDTTKKKKKKKKAKEVELVSE

Target: telomerase reverse transcriptase (TERT) (human (endogenous in hLCSCs from Huh7)) (UniProt O14746)
Assay: co-IP; co-immunoprecipitation with anti-TERT from rLV-Tet-on-CircMEG3-hLCSCs treated with DOX (0, 0.5, 1, 1.5, 2 ug/mL); IgG co-immunoprecipitation as negative control

binding, binds:
TCAB1 (from UniProt Q9BUR4 1-548)
Pontin (from UniProt Q9Y265 1-456)
B1
